According to article doi:10.1101/409748:
Results are given in words; binding and its absence hold for the method and conditions named. In cells and extracts the contact can be indirect. Some results given as binding are weak or reduced against the parent protein; the word gives no strength. Tags and fused reporters may be left off the sequences shown.

By UniProt entry, the sequences of proteins in these tests, tags left out.
UniProt Q08122: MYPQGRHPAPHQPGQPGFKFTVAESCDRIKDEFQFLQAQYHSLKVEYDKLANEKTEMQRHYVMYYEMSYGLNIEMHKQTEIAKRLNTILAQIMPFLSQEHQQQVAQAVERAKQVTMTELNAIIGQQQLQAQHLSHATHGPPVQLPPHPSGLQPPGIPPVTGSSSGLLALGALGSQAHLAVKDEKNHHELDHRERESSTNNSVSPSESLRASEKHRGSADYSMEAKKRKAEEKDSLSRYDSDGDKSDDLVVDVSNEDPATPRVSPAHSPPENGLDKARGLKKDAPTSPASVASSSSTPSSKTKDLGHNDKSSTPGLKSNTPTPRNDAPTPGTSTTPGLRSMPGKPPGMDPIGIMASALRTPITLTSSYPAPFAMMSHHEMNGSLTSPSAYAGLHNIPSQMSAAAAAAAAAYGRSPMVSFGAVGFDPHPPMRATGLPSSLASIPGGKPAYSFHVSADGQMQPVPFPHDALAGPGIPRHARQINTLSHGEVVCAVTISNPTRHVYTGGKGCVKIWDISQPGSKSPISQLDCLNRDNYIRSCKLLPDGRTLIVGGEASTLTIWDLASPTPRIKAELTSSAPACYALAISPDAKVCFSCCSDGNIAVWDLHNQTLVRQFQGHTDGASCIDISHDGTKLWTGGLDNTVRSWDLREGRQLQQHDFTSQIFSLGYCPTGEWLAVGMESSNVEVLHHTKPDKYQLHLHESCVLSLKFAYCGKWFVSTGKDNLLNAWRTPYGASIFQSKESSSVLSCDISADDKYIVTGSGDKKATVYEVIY

Key:
Assay in all cases: co-IP
EBF3-V5 = target: T1, EBF3-V5 (UniProt O08791)
T1 sequence: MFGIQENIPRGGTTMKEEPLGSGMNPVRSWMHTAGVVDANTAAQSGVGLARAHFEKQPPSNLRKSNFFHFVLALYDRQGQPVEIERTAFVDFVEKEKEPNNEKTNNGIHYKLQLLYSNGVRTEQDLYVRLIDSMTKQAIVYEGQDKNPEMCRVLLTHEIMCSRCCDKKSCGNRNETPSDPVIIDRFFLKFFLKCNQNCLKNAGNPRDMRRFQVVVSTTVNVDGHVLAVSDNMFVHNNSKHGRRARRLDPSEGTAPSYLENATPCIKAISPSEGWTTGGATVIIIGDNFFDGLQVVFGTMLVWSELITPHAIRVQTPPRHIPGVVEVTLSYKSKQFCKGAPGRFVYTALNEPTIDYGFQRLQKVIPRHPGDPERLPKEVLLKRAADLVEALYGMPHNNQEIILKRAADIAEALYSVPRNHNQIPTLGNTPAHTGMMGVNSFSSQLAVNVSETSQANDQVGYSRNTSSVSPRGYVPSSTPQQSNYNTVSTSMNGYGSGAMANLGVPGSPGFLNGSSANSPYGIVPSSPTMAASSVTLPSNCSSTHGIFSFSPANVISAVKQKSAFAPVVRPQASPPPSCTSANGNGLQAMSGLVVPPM

EBF1-V5 = target: T2, EBF1-V5 (UniProt Q07802)
T2 sequence: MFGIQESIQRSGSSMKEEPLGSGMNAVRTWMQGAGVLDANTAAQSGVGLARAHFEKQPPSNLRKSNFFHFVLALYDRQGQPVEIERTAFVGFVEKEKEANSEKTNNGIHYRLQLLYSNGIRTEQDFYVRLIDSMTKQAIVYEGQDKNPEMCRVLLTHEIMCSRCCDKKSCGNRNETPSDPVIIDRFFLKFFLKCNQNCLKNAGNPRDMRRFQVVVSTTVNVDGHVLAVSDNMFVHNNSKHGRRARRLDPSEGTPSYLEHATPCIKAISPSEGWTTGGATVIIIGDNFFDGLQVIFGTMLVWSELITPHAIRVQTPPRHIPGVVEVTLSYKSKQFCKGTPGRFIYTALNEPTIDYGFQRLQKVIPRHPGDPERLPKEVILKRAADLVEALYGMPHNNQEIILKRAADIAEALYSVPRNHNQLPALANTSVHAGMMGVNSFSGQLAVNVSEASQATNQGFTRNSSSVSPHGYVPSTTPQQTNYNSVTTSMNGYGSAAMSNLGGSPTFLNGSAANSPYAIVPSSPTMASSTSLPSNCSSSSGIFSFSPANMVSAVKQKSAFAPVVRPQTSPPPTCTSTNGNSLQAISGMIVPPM

EBF2-V5 = target: T3, EBF2-V5 (UniProt O08792)
T3 sequence: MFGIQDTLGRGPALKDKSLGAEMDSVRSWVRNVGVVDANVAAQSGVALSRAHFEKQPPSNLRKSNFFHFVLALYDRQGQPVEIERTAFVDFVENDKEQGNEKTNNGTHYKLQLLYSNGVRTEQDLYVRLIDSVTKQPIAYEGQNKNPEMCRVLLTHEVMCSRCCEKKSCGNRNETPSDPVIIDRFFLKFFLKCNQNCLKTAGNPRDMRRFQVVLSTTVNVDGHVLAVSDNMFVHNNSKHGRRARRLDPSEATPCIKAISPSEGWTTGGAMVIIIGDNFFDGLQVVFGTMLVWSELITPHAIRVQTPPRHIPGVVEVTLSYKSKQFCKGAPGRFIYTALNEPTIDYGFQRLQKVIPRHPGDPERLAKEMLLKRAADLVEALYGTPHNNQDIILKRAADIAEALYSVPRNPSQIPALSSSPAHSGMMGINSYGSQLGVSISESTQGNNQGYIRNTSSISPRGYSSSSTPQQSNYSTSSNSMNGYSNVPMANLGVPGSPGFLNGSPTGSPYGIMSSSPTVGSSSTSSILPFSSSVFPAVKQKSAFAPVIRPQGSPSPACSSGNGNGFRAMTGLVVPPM

binding (EBF3-V5): binds
binding (EBF1-V5): binds
binding (EBF2-V5): binds
Substance: Flag-TLE3 (from UniProt Q08122 1-772)
